# Measured values: PubChem BioAssay (EPA / NIEHS)
# Chains of the proteins cited; added tags and fusions are not shown. Lines headed by an entry give the natural chain unless they say otherwise; changes in a name come on top.
# UniProt Q96RI1: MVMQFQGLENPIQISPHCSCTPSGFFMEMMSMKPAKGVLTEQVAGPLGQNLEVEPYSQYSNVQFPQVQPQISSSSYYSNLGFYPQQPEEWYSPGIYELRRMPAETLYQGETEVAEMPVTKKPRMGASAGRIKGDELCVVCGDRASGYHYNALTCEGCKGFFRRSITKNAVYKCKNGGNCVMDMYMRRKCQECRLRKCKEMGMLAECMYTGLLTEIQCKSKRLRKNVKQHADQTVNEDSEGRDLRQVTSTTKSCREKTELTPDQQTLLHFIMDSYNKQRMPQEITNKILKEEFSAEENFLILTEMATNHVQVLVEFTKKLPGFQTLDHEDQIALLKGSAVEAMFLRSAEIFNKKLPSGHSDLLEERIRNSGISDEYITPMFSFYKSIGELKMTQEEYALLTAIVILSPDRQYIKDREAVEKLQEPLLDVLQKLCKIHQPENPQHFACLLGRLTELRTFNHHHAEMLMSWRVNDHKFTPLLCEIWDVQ
# UniProt P19793: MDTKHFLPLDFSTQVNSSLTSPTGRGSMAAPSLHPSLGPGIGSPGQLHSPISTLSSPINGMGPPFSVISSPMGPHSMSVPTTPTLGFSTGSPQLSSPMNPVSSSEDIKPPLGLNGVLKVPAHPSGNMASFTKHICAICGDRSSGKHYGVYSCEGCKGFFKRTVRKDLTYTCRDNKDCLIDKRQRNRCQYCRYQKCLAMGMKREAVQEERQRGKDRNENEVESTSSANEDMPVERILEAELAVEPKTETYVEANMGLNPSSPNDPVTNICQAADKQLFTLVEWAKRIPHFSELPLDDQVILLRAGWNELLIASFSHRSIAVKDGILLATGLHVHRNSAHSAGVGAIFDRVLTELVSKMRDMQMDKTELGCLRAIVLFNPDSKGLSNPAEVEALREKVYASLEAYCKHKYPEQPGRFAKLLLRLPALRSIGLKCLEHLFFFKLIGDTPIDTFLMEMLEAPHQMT
# UniProt P04637, whole entry, looked up: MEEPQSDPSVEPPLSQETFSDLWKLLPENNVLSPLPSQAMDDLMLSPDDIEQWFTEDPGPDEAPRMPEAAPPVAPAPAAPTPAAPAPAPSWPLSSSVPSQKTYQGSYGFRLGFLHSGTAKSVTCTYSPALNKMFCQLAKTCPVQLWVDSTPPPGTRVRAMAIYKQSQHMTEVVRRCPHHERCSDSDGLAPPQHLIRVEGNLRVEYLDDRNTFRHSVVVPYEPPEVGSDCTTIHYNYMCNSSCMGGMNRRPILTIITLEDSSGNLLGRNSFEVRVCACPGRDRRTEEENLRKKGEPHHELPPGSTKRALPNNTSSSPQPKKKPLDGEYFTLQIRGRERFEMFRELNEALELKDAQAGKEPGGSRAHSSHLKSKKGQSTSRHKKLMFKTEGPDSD
# UniProt P37231: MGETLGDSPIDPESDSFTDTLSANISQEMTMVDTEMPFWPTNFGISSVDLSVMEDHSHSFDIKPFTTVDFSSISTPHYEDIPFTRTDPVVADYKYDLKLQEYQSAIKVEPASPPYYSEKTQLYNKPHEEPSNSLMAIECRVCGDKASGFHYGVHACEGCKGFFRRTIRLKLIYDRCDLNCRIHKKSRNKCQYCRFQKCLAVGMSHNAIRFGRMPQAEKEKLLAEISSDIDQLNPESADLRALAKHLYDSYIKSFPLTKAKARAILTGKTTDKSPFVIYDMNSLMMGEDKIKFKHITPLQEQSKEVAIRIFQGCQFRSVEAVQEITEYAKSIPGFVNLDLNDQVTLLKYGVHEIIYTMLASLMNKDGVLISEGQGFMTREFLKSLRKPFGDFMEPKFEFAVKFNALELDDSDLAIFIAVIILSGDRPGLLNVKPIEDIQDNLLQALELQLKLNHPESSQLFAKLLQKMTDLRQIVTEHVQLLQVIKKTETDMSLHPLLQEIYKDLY
# Values joined by “and” are separate entries in the source; they are usually repeats but may differ in a detail not shown here. Identical values can stand only once. The shares of active, inactive and inconclusive entries below differ from those in the screen. For some of these results: Potencies of inconclusive entries are doubtful fits and often do not repeat. Some compounds were tested as several samples or in several runs, with calls that do not always agree. Active and inactive are the calls of the source. The calls were made as follows: active = hit-call score of the fitted dose curve at least 0.9, where 1 is the maximum; inconclusive = response in the unintended direction; inactive = score below 0.9.
# Legend:
# [1] = molecular target: Bile acid receptor (Homo sapiens) (UniProt Q96RI1); test: OT_FXR_FXRSRC1_0480: Odyssey Thera (OT) 8-hour HEK293T Protein-Complementation Assay for Farnesoid X receptor/SRC-1 Co-activator (AID 2283383)
# Procedure, shortened: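 PCA, HEK293T, 8 h compound exposure; FXR–SRC-1 binding reconstitutes split reporter; fluorescence intensity; positive-direction fit vs DMSO.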
# [2] = molecular target: Retinoic acid receptor RXR-alpha (Homo sapiens) (UniProt P19793); test: OT_NURR1_NURR1RXRa_0480: Odyssey Thera (OT) 8-hour HEK293T Protein Complementation Assay for Nurr1/retinoid X receptor (RXR) (AID 2283385)
# Procedure, shortened: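 Interaction of bait and prey reconstitutes a functional reporter, whose fluorescence was measured in HEK293T cells dosed with compound for 8 hours. Signal gain relative to DMSO defined the single endpoint.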
# [3] = molecular target: Retinoic acid receptor RXR-alpha (Homo sapiens) (UniProt P19793); test: OT_NURR1_NURR1RXRa_1440: Odyssey Thera (OT) 24-hour HEK293T Protein Complementation Assay for Nurr1/retinoid X receptor (RXR) (AID 2283386)
# Procedure, shortened: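 Steps: fragment-tagged Nurr1 and RXRα expressed in HEK293T; compounds added; after 24 h, complemented reporter quantified by fluorescence intensity; signal increase over DMSO fitted as the single endpoint.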
# [4] = TOX21_p53_BLA_p2_viability: Viability Assessment in the Tox21 HCT-116 p53 Agonism Beta-lactamase Assay, Phase 2 (AID 2283591);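 also: actives lower the ATP signal meaning cytotoxicity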
# Procedure, shortened: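 HCT116 p53-bla cells, 4000/well, dosed after 5 h plating (217-fold dilution of DMSO stocks) and incubated 16 h at 37C. Viability taken as cellular ATP by CellTiter-Glo luminescence after 30 min RT; signal loss marks cytotoxicity.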
# [5] = molecular target: Cellular tumor antigen p53 (Homo sapiens) (UniProt P04637); test: TOX21_p53_BLA_p2_ratio: Tox21 HCT-116 p53 Agonism Beta-lactamase Assay, Ratio, Phase 2 (AID 2283592)
# Procedure, shortened: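 First, HCT116 reporter cells settle for 5 h at 37C. Next, DMSO compound solutions are pinned in (217-fold dilution) and left 16 h. Finally, CCF4-AM substrate is loaded 2 h at room temperature and the 460/530 nm ratio read.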
# [6] = TOX21_p53_BLA_p3_viability: Viability Assessment in the Tox21 HCT-116 p53 Agonism Beta-lactamase Assay, Phase 3 (AID 2283593);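 also: cells exposed to compound for 16 h before reading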
# Procedure, shortened: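 HCT116 cells, 4000/well, dosed 5 h after plating by pin transfer (217-fold dilution from DMSO stock) and incubated 16 h at 37C, 5% CO2. Viability read as ATP luminescence with CellTiter-Glo after 30 min at room temperature.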
# [7] = molecular target: Cellular tumor antigen p53 (Homo sapiens) (UniProt P04637); test: TOX21_p53_BLA_p3_ratio: Tox21 HCT-116 p53 Agonism Beta-lactamase Assay, Ratio, Phase 3 (AID 2283596)
# Procedure, shortened: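 Cells were seeded at 4000/well, rested 5 h at 37C, then dosed with DMSO compound solutions (217-fold dilution) for 16 h. CCF4-AM substrate was loaded for 2 h at room temperature, and the 460/530 nm emission ratio was fitted for gain of signal versus DMSO.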
# [8] = molecular target: Cellular tumor antigen p53 (Homo sapiens) (UniProt P04637); test: TOX21_p53_BLA_p5_ratio: Tox21 HCT-116 p53 Agonism Beta-lactamase Assay, Ratio, Phase 5 (AID 2283599)
# Procedure, shortened: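 HCT-116 p53-bla cells (4000/well) plated 5 h, dosed with compound (217-fold DMSO dilution) for 16 h at 37 C; CCF4-AM substrate 2 h at room temperature. Activity is the 460/530 nm emission ratio (405 nm excitation), fitted in gain-of-signal direction versus DMSO.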
# [9] = molecular target: Cellular tumor antigen p53 (Homo sapiens) (UniProt P04637); test: TOX21_p53_BLA_p4_ratio: Tox21 HCT-116 p53 Agonism Beta-lactamase Assay, Ratio, Phase 4 (AID 2283601)
# Procedure, shortened: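 HCT-116 p53 beta-lactamase reporter cells (4000/well) preincubated 5 h, then compound (217-fold dilution of DMSO stock) for 16 h at 37C. CCF4-AM substrate added 2 h at room temperature; 460/530 nm emission ratio fitted upward versus DMSO.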
# [10] = molecular target: Bile acid receptor (Homo sapiens) (UniProt Q96RI1); test: OT_FXR_FXRSRC1_1440: Odyssey Thera (OT) 24-hour HEK293T Protein-Complementation Assay for Farnesoid X receptor/SRC-1 Co-activator (AID 2283384)
# Procedure, shortened: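 Measures ligand-driven FXR–SRC-1 co-activator recruitment in HEK293T via fragment complementation, fluorescence intensity at 24 h. DMSO served as negative control and baseline for gain-of-signal fitting.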
# [11] = TOX21_p53_BLA_p5_viability: Viability Assessment in the Tox21 HCT-116 p53 Agonism Beta-lactamase Assay, Phase 5 (AID 2283600)
# Procedure, shortened: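 Decreased CellTiter-Glo luminescence denotes lost viability. Exposure: 16 h at 37C, 5% CO2, with compounds from DMSO stocks diluted 217-fold in wells of 4000 cells.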
# [12] = TOX21_p53_BLA_p4_viability: Viability Assessment in the Tox21 HCT-116 p53 Agonism Beta-lactamase Assay, Phase 4 (AID 2283597);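 also: hits lower the luminescence signal meaning cytotoxicity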
# Procedure, shortened: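 4000 HCT116 cells per well; 5 h attachment; compounds from DMSO, 217-fold dilution; 16 h at 37C. Then CCF4-AM, 2 h RT, followed by CellTiter-Glo, 30 min RT, luminescence. Decrease = cytotoxicity.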
# [13] = molecular target: Peroxisome proliferator-activated receptor gamma (Homo sapiens) (UniProt P37231); test: OT_PPARg_PPARgSRC1_0480: Odyssey Thera (OT) 8-hour Protein-Complementation Assay for Peroxisome Proliferator-activated Receptor Gamma / SRC-1 Co-activator (AID 2283387);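 also: nuclear to cytoplasmic split Venus YFP fluorescence ratio reporting PPARg SRC-1 interaction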
# Procedure, shortened: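 Protein-fragment complementation in HEK293T: Venus YFP halves (residues 1-158, 159-239, mutated to IFP1/IFP2) fused to PPARg/SRC-1. 8 h exposure; N/C ratio at 488 nm; DMSO negative control.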
# [14] = ATG_XTT_Cytotoxicity: Cytotoxicity Assessment in the Attagene TRANS-FACTORIAL HepG2 Assay (AID 2283584);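 also: XTT signal for cell number as viability in transfected HepG2 cells; cells exposed to compound for 24 h before reading; active means loss of viability signal versus DMSO baseline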
# Procedure, shortened: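 HepG2 cells transiently transfected with GAL4-UAS multiple reporter units, dosed 24 h; cytotoxicity read by XTT as loss of signal versus DMSO baseline.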
structure (smiles),measurement,setting,value
CO/C=C(/C(=O)OC)c1ccccc1COc1cccc(C(F)(F)F)n1,AC50,[1],active: 9.85 µM
same,AC50,[2],active: 50 µM
same,outcome,[3],inactive
same,outcome,[4],inactive
same,AC50,[5],active: 2.77 µM
same,outcome,[6],inactive
same,AC50,[7],active: 6.17 µM
same,AC50,[8],active: 4.18 µM
same,AC50,[9],active: 5.53 µM
CCc1ccc(C(=O)NN(C(=O)c2cc(C)cc(C)c2)C(C)(C)C)cc1,outcome,[1],inactive
same,AC50,[10],active: 10.6 µM
same,AC50,[6],inconclusive: 46.1 µM
same,outcome,[7],inactive
same,AC50,[11],inconclusive: 46.1 µM
c1ccc2c(c1)sc1ccccc12,AC50,[1],inconclusive: 0.958 µM
same,AC50,[10],inconclusive: 18.5 µM
same,AC50,[2],inconclusive: 50 µM
same,AC50,[3],inconclusive: 87.9 µM
same,outcome,[4],inactive
same,AC50,[12],inconclusive: 23 µM
CC1(C)CCC(Cc2ccc(Cl)cc2)C1(O)Cn1cncn1 (stereo not drawn),AC50,[1],active: 24.3 µM
same,outcome,[2],inactive
Oc1cc(Cl)ccc1Oc1ccc(Cl)cc1Cl,AC50,[1],active: 11.9 µM
same,AC50,[10],active: 12 µM
same,AC50,[13],inconclusive: 77.9 µM and inconclusive: 83.6 µM
same,AC50,[14],active: 66.3 µM and active: 51.2 µM and active: 39.8 µM
same,AC50,[4],active: 31.6 µM
same,outcome,[4],inactive
same,AC50,[5],active: 73.1 µM
same,AC50,[6],active: 54.2 µM and inconclusive: 6.64 µM
same,AC50,[7],active: 78.1 µM and inconclusive: 23 µM
same,AC50,[12],active: 41.3 µM
same,AC50,[8],active: 81.1 µM
same,AC50,[11],active: 48 µM
same,AC50,[9],active: 79 µM
same,outcome,[9],inactive
O=C(NC(=O)c1c(F)cccc1F)Nc1ccc(Cl)cc1,outcome,[1],inactive
same,outcome,[10],inactive
same,outcome,[2],inactive
same,AC50,[14],inconclusive: 100 µM
O=[N+]([O-])c1ccc(Cl)c(Cl)c1,outcome,[1],inactive
same,AC50,[2],inconclusive: 50 µM
same,AC50,[3],inconclusive: 50 µM
OCCOCCO,AC50,[1],inconclusive: 50 µM
same,AC50,[2],inconclusive: 50 µM
same,outcome,[2],inactive
same,AC50,[3],inconclusive: 50 µM
same,outcome,[3],inactive
CCC(C)(C)c1ccc(O)c(C(C)(C)CC)c1,AC50,[1],inconclusive: 25 µM
same,AC50,[10],inconclusive: 18.5 µM
same,AC50,[2],inconclusive: 22.8 µM and inconclusive: 22.7 µM
same,AC50,[3],inconclusive: 23.2 µM and inconclusive: 15.8 µM
same,AC50,[4],active: 46.1 µM and active: 45.7 µM
same,AC50,[6],active: 52.9 µM and active: 64 µM
same,AC50,[7],active: 79.3 µM and active: 85.5 µM
same,AC50,[12],active: 23 µM and active: 53.5 µM
same,AC50,[8],active: 22.9 µM and active: 70.8 µM
same,AC50,[11],active: 22.2 µM and active: 45.7 µM
